Source: publication PMC5409509
The exact form of at least one protein or probe is not confirmed. For some assays here: The comparison behind a weaker result is the experiment's own reference, which may not be listed here. For some assays here: At least one verdict was read from the data and is not stated in words by the source.

Chains of the proteins cited; added tags and fusions are not shown. Chains listed by the source or under a name are the forms on record and can include a tag or linker.
MLH1-PMS2 (Homo sapiens), one chain, as listed by the source, chain 2 of 2: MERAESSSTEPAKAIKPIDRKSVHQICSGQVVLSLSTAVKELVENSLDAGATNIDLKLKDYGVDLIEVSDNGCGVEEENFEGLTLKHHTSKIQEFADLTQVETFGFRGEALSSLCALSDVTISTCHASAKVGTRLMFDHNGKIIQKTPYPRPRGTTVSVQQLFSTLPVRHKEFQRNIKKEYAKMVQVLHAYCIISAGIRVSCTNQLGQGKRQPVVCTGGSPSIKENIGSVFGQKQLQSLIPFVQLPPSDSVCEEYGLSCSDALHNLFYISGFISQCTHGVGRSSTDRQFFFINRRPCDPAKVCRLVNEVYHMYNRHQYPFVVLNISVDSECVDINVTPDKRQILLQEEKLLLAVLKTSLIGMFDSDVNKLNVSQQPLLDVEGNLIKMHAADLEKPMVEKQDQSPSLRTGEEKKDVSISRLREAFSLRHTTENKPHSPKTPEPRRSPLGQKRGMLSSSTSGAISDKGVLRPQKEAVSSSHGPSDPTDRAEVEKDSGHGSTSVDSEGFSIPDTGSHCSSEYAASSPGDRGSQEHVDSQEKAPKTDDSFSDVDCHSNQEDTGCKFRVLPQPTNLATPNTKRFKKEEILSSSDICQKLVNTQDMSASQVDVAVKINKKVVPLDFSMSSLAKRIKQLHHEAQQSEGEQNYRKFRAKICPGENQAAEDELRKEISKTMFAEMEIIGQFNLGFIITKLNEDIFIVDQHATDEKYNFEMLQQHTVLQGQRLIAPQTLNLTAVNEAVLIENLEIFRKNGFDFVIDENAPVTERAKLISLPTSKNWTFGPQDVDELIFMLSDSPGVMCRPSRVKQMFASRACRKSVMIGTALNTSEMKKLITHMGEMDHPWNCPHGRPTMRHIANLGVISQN
Mlh1-Mlh3 (Saccharomyces cerevisiae), one chain, as listed by the source, chain 2 of 2: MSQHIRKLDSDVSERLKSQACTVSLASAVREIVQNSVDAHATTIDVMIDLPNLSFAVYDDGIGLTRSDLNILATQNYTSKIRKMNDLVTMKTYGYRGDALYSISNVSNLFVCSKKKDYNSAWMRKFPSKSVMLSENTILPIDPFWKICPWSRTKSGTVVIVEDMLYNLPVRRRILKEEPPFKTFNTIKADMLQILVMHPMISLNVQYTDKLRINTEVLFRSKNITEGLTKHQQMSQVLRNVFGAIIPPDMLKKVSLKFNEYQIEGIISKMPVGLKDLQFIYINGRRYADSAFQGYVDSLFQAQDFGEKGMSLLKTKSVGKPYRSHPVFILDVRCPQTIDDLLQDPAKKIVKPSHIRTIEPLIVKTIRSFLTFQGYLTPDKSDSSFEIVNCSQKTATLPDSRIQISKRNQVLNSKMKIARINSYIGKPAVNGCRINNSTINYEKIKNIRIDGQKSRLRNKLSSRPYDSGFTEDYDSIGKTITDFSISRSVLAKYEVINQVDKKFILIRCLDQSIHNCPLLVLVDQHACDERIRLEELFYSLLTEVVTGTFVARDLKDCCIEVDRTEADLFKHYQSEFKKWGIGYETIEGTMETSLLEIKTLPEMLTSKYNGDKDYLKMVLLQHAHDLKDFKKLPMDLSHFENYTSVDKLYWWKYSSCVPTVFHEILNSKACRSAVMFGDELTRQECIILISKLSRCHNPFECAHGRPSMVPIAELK
MLH1-PMS2 (Homo sapiens), one chain, as listed by the source, chain 1 of 2: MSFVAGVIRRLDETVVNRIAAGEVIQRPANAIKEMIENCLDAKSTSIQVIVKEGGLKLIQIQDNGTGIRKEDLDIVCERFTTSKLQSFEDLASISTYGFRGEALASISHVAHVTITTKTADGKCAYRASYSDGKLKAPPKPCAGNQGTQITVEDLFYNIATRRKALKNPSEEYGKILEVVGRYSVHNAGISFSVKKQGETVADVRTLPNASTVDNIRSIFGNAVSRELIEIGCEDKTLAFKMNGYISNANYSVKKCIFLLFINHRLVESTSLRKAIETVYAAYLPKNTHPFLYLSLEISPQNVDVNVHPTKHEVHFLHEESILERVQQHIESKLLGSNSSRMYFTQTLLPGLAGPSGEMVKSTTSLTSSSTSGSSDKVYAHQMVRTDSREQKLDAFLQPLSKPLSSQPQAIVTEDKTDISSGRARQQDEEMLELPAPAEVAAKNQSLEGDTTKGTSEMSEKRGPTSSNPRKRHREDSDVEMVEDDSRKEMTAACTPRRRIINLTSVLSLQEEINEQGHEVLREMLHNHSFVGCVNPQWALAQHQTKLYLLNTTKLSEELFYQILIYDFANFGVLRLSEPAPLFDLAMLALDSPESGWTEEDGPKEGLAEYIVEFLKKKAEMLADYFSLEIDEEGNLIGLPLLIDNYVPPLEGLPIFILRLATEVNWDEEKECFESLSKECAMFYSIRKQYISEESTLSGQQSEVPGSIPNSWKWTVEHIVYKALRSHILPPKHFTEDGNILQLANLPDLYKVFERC
Mlh1-Mlh3 (Saccharomyces cerevisiae), one chain, as listed by the source, chain 1 of 2: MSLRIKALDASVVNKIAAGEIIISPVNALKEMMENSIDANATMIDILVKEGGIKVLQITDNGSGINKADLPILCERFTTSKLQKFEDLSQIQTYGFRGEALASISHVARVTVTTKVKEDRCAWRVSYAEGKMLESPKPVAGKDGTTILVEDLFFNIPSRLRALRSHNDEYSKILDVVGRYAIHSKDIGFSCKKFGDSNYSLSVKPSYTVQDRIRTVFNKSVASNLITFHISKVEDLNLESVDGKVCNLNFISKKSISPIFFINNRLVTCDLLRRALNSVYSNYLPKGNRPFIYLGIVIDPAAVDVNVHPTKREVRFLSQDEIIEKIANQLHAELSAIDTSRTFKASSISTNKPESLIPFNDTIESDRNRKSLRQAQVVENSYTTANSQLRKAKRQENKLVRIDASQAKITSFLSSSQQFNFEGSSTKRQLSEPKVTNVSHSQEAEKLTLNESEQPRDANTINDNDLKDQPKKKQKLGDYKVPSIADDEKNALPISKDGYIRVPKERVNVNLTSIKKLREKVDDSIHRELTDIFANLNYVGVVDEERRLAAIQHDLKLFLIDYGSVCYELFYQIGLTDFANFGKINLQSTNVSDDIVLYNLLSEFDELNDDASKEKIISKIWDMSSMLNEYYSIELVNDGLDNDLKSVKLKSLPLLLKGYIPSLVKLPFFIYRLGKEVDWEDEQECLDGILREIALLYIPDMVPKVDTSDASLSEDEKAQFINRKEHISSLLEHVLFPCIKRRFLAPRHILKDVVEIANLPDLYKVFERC

Columns and labels:
[1] = tested on: MLH1-PMS2 (Homo sapiens); assay: competition with a labelled probe; details: inhibits plasmid nicking, 1 uM RFC and PCNA, 0.5 mM ATP, 1 mM Mn2+; recombinant protein
[2] = tested on: Mlh1-Mlh3 (Saccharomyces cerevisiae); assay: competition with a labelled probe; details: ineffective competitor of plasmid nicking, 0-2000 nM, 1 mM Mg2+, text cites nM Kd from earlier work; recombinant protein

Question: Does “GGGTCAACGTGGGCAAAGATGTCCTAGCAAGTCAGAATTCGGTAGCGTG / CACGCTACCGAATTCTGACTTGCTAGGTGTGTGTGACATCTTTGCCCACGTTGACCC [+8 loop oligonucleotide (AO3142/AO3143)]” bind [1]?
Answer: Result: binds

Question: Does “GGGTCAACGTGGGCAAAGATGTCCTAGCAAGTCAGAATTCGGTAGCGTG / ACAGCTACCGAATTCTGACTTGCTAGGACATCTTTGCCCACGTTGACCC [homoduplex oligonucleotide (AO3142/AO3144)]” bind [2]?
Answer: Result: binds more weakly
